Results are given in words; binding and its absence hold for the method and conditions named. In cells and extracts the contact can be indirect. Some results given as binding are weak or reduced against the parent protein; the word gives no strength.
Target: T1, APP-BP1 (amyloid precursor protein binding protein-1), endogenous in rat brain (rat (endogenous in adult Sprague Dawley rat brain)) (UniProt Q9Z1A5)
T1 sequence: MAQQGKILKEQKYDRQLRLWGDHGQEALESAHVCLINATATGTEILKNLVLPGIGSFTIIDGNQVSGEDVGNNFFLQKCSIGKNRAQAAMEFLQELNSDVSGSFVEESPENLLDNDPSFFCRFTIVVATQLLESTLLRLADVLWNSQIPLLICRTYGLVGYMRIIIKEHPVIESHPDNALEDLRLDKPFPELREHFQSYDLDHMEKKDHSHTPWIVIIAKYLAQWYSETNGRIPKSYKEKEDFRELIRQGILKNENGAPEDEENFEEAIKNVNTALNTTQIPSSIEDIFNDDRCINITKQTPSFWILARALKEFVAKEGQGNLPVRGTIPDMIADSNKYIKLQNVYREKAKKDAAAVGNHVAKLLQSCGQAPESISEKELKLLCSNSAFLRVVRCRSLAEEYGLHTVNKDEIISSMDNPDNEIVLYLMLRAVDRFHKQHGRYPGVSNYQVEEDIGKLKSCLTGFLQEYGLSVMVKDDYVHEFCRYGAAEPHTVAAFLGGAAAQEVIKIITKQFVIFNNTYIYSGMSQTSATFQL
Experiment: co-IP; rat brain membrane fraction proteins extracted in 20 mM Tris pH 8, 1 mM MgCl2, NaCl, 2% CHAPS; BP339 (anti-APP-BP1) prebound to protein G beads; blot with anti-PS1 (AB5308), anti-PS1-NTF or anti-nicastrin; controls beads alone or BP339 pre-immune antibody

Amino acid sequences for entries named in this document (tags omitted). Residues count along the entry.
UniProt Q8CGU6, residues 35-708: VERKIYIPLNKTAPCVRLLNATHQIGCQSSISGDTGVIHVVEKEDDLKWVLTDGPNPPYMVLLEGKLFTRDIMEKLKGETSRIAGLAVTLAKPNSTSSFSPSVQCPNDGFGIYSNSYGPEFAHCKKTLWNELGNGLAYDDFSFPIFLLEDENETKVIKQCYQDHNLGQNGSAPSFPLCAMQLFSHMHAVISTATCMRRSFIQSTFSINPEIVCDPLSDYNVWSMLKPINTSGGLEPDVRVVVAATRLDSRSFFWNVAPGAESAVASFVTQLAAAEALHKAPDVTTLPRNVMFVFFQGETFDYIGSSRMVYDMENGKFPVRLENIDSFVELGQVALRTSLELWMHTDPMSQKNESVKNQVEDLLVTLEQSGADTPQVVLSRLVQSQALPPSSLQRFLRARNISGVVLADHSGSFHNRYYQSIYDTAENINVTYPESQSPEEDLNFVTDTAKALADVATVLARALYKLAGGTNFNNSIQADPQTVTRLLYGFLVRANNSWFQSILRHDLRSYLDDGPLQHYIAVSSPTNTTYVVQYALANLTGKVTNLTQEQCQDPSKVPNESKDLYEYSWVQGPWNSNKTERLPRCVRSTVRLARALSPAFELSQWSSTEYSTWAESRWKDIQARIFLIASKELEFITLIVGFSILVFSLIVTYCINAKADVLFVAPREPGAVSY

nicastrin, endogenous in rat brain (from UniProt Q8CGU6 35-708)
binding: binds
